By Kd is commonly meant a measure of binding affinity in units of concentration.

Three sequences from publication PMC12210985 can be followed below.

The target of series [1] is T1, ArcA-P (Shewanella oneidensis MR-1) (UniProt Q8EAB9).
T1 sequence (looked up, limits assumed): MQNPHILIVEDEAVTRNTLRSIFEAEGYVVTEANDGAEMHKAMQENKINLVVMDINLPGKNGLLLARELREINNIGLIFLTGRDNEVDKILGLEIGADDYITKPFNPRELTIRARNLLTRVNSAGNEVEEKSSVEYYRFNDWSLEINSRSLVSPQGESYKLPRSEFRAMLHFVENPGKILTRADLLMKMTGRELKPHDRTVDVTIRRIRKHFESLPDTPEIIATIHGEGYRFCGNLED
Briefly: MST. The settings on record: phosphorylated ArcA, MST: 1x PBS pH 7.4, 0.05% Tween-20, 25 C, recombinant protein, protein details: C-terminal 6xHis (pET22b), label: 5'-biotin on forward strand (EMSA), probe letters rebuilt from the primers and the genome.

The target of series [2] is T2, MBP-Crp-His6 (Shewanella oneidensis MR-1) (UniProt Q8EJ49).
T2 sequence: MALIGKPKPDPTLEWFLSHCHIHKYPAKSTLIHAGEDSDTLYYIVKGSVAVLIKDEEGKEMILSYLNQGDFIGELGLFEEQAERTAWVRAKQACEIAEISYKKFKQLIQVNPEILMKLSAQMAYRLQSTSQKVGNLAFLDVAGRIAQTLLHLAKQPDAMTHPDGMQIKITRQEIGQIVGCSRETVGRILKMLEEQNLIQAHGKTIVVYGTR
The series is described as follows: MST. Particulars: cAMP, MST: 1x PBS pH 7.4, 0.05% Tween-20, 25 C, recombinant protein, protein details: N-terminal MBP, C-terminal 6xHis, label: 5'-biotin on forward strand (EMSA), probe letters rebuilt from the primers and the genome.

Series [3] concerns the target T1, ArcA-P (Shewanella oneidensis MR-1). Briefly: EMSA. Particulars: EMSA: 2 mM EDTA, 20 mM KCl, 0.5 mM DTT, 4% Ficoll-400, pH 8.0, 2 ug poly(dI-dC), 10 nM probe, 10 uM cAMP for Crp, recombinant protein, protein details: C-terminal 6xHis (pET22b), label: 5'-biotin on forward strand (EMSA), probe letters rebuilt from the primers and the genome. On the technique in general: A gel shift assay detects complexes by their altered migration in electrophoresis.

Series [4] addresses T3, MBP-Crp (Shewanella oneidensis MR-1) (UniProt Q8EJ49).
T3 sequence: T2 sequence
The series is described as follows: EMSA. Particulars: 10 uM cAMP, 0.18 and 0.36 uM protein; EMSA: 2 mM EDTA, 20 mM KCl, 0.5 mM DTT, 4% Ficoll-400, pH 8.0, 2 ug poly(dI-dC), 10 nM probe, 10 uM cAMP for Crp; recombinant protein; protein details: N-terminal MBP (pMAL-c4x); label: 5'-biotin on forward strand (EMSA); probe letters rebuilt from the primers and the genome.

Setting [5] is: ArcA-P 0-3.4 uM, competed by 50x unlabelled probe.

For at least one entry, the source does not settle the construct or the ends of the probe. For part of these data: Tags and fusion partners may be left off the protein sequences shown.

As to “ATCCACAAGCACTACGTTTTGAAGGAAAGACAATGCGCCGCGTTCCTGCTAAATACGTGGGTTTTAAACAAAACCTACTGCATTGAGCTAGCGCAGATTTATCACAGAAATGCGATCGCAATCACGCTGGTCGCGCGCATTCTACCCCAATTGCCGTGCCATCGCCACGAAAATTATAGGTGTTTTCAAACCTAAAATAAGGATTTACAAGAATCATGCGCTACAGCGTTCACCTTCCGACCGAACAAGGGTTCAGAAAGAGAGAGTATTACGGTCGTCAAATACTATAACATTAATTTTTAAAGAATTAATTTAGCGAAAGGTCGATAACCTGTGATATCTAGAAATCTAAATGCTTTTTCGCTTTATTCCTAATAACTTTAAACAAGATTTAACTCAGT (double strand) [nqr1 promoter probe (PnqrA1)]”, the Kd in series [1] is 0.56 µM; in series [2] it was 0.12 µM. Further, the binding result in series [3] (setting [5]) and in series [4] was “binds” in each case.
For “CATCACAAATATCAACCATGAAAATTTTTAGATAAATTTAGGGTAGATGTTTGTTAACAGATAATCCGATAGTGGCGTCACATTCCGCTGTAATTCCGTAAGTAATATACATAAAAAAGCACTATTTTGTGACACGAATCTACATGAAGTCAGGGCAAGAACTCTAAATGTAGTTTTATAACAAATAACTCATAATTACGTCATAACTGATTTAGAGTTAACTTAACTATATAAAAATAGACAAAAATCCCCCTCTTCGGCCTCGAATCGACGCAAAGGTGTAAAAACCAATGTCTGCGGCGATTCCATGCACAATATGTGGCAATAAACCAAGTAAAACCTATGCAAGGCATTGGTTATTTTTAACCCAGTAACATACTTAGCGCCGCATTAACCTTTGCTTTACAGCAAAAGCTTGATAGCCTCGAACTAAGATAGTTTCCGTAGGAGAAATAGA (double strand) [nqr2 promoter probe (PnqrA2)]”, the Kd in series [1] turned out to be 0.68 µM; in series [2], 2.02 µM. For the same sequence, the binding result in series [3] (setting [5]) and in series [4] was “binds” each time.
For the sequence “TGGCGAACAGTTAAGACAGATCGCTTGGCGATCTCGCTGAAAAGTCTCATTTCCACTGATGGCACCACGCTTATCGAGGCGGCTGCGTATCCCTGCCTGATGTTGACGATAAGCAACCATCGGCCCATCCCTGTATCACAAATAACAAAAAAATGCGAACTTAATCACGTGTCACCTATGAACAATTAGCACCTATAAATGACTTGTAAATCAGTGCAAAAATGTAATAATCGCCAAGATTATTGTTAATCCACTTAGTCTGTTTTGTTGTAGATTACTTCTCATTACATCAATGTGGTTGAAAATCGCACAAACGATTTAGCATTAGTGATTATGTGGTTGCCAATGTATTGCTTAACAAAAAATTTTCAAAGAGCAACCGCTTCTAGGAAAAACCATC (double strand) [nuo promoter probe (PnuoA)]”, the binding result in series [1] (Kd shown only in figure), in series [2] (Kd shown only in figure), in series [3] (phosphorylated ArcA) and in series [4] was “binds” each time.
